In publication PMC11247735 one finds binding data, which are given here for two molecules.

These are yes or no findings as the source states them, for the method shown. In cells and extracts the contact can be indirect. Binding can be weak; no strength is given. Where a sequence is shown, tags or fusion partners need not be part of it.

Test [1] deals with T1, Histone deacetylase 8 (human (endogenous in SU-DHL-2/R)) (UniProt Q9BY41).
T1 sequence: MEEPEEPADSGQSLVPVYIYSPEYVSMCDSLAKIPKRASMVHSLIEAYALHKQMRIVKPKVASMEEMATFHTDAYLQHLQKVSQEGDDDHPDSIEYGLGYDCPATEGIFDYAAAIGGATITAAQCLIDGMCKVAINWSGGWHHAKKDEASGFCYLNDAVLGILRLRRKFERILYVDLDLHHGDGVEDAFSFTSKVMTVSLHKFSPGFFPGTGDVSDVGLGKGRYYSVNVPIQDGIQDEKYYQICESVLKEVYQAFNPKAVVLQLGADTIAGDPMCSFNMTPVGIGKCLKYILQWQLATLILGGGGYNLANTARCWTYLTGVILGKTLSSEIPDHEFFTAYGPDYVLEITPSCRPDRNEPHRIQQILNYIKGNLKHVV
Description: co-IP; endogenous proteins in SU-DHL-2/R cells; one partner immunoprecipitated with its antibody, the other detected by western blotting; control immunoprecipitation with IgG. (In general: A western blot detects proteins with antibodies after separation by electrophoresis.)

For test [2], the target named is Pyruvate dehydrogenase kinase 4 (human (endogenous in SU-DHL-2/R)). The description is as above.

As to “Pyruvate dehydrogenase kinase 4 (human (endogenous in SU-DHL-2/R)) (enzyme)”, in test [1], the binding result is given as “binds”.

B1: Histone deacetylase 8 (enzyme, UniProt Q9BY41 1-377)
chain: MEEPEEPADSGQSLVPVYIYSPEYVSMCDSLAKIPKRASMVHSLIEAYALHKQMRIVKPKVASMEEMATFHTDAYLQHLQKVSQEGDDDHPDSIEYGLGYDCPATEGIFDYAAAIGGATITAAQCLIDGMCKVAINWSGGWHHAKKDEASGFCYLNDAVLGILRLRRKFERILYVDLDLHHGDGVEDAFSFTSKVMTVSLHKFSPGFFPGTGDVSDVGLGKGRYYSVNVPIQDGIQDEKYYQICESVLKEVYQAFNPKAVVLQLGADTIAGDPMCSFNMTPVGIGKCLKYILQWQLATLILGGGGYNLANTARCWTYLTGVILGKTLSSEIPDHEFFTAYGPDYVLEITPSCRPDRNEPHRIQQILNYIKGNLKHVV
As to B1, the binding entry in test [2] was “binds”.
